Assay results: the supplement of paper PMC10849652
This is one part of the list.

Protein sequences, listed by entry. Tags and fused reporters are not part of them. Lines headed by an entry give the natural chain unless they say otherwise; changes in a name come on top.
UniProt O43395: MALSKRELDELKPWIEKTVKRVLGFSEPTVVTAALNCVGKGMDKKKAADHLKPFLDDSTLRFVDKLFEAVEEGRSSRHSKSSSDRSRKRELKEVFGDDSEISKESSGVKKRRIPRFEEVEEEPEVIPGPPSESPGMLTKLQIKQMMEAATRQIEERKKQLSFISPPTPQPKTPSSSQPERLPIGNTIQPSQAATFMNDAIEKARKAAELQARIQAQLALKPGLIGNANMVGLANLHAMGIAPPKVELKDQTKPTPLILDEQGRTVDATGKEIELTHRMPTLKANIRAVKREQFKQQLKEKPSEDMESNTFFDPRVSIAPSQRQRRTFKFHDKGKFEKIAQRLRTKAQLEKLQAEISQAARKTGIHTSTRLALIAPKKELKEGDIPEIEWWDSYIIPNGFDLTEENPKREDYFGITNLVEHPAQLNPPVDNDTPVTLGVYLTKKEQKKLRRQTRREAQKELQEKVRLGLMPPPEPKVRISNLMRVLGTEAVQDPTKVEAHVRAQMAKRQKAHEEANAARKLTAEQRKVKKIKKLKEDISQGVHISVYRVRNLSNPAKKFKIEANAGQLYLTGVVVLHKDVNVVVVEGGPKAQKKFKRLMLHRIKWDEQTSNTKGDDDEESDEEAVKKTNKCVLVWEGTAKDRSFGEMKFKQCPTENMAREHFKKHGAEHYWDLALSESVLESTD
UniProt Q9ULR3: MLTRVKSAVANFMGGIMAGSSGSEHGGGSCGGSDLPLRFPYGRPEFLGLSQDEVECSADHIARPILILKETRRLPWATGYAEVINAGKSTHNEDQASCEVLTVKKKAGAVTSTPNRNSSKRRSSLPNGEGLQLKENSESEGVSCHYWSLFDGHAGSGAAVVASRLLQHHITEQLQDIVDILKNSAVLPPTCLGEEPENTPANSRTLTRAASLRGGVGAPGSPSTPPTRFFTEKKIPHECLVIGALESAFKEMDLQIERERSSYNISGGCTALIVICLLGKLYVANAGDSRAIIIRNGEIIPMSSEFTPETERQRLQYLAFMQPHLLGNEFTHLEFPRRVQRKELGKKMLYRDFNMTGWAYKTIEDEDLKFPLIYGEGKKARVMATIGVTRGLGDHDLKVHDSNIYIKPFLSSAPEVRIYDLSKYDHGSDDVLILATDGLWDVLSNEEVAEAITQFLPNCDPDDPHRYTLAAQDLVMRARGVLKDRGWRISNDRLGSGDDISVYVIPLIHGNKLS
UniProt P62136, whole entry, looked up: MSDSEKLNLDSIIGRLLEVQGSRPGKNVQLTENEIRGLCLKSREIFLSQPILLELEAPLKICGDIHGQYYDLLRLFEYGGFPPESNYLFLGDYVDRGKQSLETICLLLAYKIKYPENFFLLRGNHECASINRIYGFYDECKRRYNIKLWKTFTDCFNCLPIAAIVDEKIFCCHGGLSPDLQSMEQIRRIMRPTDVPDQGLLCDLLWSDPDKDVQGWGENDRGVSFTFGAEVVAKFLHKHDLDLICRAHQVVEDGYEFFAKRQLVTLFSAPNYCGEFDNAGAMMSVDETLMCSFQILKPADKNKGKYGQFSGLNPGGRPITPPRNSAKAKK
UniProt Q8NAV1: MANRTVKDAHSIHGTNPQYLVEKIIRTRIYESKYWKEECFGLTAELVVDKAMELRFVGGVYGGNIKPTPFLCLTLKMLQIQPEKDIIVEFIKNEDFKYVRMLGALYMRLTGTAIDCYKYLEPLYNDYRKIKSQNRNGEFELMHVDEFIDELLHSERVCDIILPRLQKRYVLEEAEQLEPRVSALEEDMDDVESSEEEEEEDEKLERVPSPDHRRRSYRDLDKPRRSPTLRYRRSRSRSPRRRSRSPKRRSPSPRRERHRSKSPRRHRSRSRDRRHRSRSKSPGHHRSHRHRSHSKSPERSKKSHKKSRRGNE
UniProt Q96M27: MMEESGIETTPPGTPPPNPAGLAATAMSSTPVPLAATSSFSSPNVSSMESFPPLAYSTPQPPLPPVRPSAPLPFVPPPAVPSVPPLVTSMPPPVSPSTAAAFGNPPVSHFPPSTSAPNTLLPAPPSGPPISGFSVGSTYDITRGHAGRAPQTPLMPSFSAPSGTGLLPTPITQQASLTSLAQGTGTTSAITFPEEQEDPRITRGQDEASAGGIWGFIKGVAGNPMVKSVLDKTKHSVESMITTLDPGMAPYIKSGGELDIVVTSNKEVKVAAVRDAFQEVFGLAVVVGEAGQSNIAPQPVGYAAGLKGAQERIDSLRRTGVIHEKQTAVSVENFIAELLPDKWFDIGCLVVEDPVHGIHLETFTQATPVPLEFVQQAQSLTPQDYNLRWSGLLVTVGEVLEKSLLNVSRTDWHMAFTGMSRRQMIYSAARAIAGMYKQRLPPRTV
UniProt Q9Y570: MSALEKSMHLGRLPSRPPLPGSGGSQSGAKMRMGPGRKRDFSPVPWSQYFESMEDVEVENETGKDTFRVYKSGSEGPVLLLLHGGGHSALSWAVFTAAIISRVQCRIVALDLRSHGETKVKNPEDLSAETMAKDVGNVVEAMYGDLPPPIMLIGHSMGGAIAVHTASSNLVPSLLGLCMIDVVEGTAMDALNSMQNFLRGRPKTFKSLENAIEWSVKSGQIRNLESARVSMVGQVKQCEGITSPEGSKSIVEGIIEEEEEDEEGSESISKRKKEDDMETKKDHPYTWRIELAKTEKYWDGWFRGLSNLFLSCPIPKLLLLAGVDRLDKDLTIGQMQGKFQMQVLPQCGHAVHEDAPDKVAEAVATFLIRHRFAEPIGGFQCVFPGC
UniProt P67775, whole entry, looked up: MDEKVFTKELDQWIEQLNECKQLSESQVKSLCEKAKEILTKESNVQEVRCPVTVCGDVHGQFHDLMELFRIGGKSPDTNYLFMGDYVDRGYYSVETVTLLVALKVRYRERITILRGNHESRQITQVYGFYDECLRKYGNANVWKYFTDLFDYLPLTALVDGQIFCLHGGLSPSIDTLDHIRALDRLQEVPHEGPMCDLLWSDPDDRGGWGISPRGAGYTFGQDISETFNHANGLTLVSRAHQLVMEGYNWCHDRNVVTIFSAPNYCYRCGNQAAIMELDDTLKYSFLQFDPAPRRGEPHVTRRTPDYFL
UniProt P49593: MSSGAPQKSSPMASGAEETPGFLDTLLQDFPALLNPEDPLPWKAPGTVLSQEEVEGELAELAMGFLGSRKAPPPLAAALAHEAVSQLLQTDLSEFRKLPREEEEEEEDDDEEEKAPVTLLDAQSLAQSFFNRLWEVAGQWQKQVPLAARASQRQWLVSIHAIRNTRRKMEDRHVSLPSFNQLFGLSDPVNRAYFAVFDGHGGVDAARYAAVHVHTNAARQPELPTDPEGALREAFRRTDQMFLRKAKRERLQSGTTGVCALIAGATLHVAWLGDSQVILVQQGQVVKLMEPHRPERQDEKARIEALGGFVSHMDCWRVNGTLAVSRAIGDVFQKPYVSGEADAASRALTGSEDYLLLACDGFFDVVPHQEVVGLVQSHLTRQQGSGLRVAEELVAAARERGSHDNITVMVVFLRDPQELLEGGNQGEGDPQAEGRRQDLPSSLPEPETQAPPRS
UniProt O75400: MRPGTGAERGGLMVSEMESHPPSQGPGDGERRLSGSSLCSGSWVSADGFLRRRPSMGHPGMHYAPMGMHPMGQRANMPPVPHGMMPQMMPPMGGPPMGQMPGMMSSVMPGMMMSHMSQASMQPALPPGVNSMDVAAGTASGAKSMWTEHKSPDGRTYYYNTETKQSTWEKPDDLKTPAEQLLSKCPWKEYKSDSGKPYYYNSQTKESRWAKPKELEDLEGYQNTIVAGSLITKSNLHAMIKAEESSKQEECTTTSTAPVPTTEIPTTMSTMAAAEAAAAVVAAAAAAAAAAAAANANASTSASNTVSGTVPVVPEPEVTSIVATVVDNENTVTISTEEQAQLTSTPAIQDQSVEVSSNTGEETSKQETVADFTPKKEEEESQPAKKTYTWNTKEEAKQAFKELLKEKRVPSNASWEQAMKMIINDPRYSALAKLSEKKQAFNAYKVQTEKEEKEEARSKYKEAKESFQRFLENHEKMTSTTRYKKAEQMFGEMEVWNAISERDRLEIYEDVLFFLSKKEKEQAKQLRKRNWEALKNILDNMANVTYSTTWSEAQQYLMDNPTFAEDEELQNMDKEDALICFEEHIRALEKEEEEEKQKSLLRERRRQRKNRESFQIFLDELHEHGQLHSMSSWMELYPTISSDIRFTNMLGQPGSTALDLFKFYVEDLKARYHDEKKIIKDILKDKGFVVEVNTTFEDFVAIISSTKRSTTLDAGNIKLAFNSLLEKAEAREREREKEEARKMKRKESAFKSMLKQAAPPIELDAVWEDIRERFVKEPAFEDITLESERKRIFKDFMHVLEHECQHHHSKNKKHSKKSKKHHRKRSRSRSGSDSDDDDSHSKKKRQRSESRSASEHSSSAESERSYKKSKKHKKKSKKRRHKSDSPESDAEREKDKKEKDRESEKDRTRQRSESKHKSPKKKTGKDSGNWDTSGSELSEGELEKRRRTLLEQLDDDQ
UniProt Q9UGJ0: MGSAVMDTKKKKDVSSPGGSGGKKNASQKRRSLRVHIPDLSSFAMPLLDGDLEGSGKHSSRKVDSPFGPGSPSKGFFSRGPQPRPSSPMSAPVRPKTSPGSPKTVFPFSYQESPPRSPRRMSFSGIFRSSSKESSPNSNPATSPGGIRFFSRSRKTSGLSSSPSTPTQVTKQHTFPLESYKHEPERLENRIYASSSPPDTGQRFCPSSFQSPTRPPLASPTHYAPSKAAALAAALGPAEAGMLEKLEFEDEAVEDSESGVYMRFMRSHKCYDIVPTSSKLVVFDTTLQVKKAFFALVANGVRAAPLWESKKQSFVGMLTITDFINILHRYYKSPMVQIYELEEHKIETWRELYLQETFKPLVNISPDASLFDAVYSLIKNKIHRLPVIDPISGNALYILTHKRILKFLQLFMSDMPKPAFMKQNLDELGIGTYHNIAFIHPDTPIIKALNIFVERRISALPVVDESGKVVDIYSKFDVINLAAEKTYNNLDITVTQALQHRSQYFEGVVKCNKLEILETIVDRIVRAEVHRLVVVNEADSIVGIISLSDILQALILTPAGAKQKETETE
UniProt Q96QC0: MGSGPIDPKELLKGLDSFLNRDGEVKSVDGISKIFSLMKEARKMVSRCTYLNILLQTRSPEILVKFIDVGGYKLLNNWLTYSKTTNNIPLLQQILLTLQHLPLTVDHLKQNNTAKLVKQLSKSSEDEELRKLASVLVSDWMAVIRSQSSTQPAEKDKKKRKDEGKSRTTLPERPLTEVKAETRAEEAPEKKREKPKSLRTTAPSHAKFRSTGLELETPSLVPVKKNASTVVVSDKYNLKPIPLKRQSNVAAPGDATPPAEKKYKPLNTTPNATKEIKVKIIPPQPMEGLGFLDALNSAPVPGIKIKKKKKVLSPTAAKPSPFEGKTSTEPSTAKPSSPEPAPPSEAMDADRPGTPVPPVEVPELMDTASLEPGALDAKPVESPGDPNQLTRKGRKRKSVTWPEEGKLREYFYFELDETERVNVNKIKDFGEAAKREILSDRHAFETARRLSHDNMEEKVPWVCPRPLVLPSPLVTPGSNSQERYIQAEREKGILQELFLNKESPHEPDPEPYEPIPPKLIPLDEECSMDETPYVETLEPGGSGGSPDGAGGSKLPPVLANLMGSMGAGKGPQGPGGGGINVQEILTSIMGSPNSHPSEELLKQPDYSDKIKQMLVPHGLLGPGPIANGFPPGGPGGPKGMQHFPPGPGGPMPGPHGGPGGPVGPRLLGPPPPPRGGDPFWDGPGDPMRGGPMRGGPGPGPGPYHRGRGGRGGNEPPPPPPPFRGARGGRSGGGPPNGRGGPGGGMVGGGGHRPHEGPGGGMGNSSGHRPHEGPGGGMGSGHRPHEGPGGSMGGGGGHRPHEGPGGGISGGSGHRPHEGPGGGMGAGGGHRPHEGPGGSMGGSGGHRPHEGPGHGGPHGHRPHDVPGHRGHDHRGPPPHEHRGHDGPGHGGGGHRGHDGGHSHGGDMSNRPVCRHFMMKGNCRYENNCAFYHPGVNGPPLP
UniProt P41743, whole entry, looked up: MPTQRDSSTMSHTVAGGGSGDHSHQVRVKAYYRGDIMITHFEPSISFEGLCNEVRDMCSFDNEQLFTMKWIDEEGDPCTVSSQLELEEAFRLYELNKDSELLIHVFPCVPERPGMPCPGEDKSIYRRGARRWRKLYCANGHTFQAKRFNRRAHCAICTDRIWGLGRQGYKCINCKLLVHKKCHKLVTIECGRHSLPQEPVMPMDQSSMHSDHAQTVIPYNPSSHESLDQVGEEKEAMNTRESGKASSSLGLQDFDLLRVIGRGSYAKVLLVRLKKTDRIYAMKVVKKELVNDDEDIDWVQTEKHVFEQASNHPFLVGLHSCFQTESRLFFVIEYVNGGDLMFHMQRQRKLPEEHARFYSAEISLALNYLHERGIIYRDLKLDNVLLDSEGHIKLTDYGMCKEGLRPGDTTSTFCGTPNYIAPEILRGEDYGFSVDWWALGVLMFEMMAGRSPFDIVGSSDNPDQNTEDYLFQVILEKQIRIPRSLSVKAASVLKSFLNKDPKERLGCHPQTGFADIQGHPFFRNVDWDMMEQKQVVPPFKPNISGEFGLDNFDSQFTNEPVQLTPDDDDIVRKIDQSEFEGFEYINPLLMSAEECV

Legend:
Test in all cases: log2 fold change, soluble protein after heating vs DMSO (PISA); higher = thermal stabilisation; K562 cells, 10 uM, 30 min; active = over 0.2 and 3.5 SD of the protein, either way, in both replicates (recomputed)
[1] = compound: Cc1ccc(NC(=O)c2ccc(CN3CC[C@H](N(C)C)C3)c(C(F)(F)F)c2)cc1Nc1nccc(-c2cncnc2)n1 [bafetinib]
Procedure, shortened: (§1)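 Thermal stability values are relative to control samples and come from duplicates. They are expressed as log2 fold changes. For measurement, K562 cells (2×10^6 cells/mL) received 10 μM compound for 30 min, and aliquots were heated for 3 min over 48°C-58°C, pooled, and extracted at 4°C in PBS with 0.5% NP-40. Soluble protein, the supernatant after 21,000xg for 90 min, was quantified by TMTpro 16plex LC-MS/MS with equalised channel sums.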

[2] = compound: Cc1cccc(CC(=O)N2CCc3c2ccc(-c2cn(C)c4ncnc(N)c24)c3F)n1
Procedure, shortened: as §1

[3] = compound: Cc1cn(-c2cc(NC(=O)c3ccc(C)c(Nc4nccc(-c5cccnc5)n4)c3)cc(C(F)(F)F)c2)cn1 [nilotinib]
Procedure, shortened: as §1

[4] = compound: Cc1nc(Nc2n[nH]c3c2CN(C(=O)N[C@H](CN(C)C)c2ccccc2)C3(C)C)c2sccc2n1
Procedure, shortened: as §1

[5] = compound: Cc1nc(Nc2ncc(C(=O)Nc3c(C)cccc3Cl)s2)cc(N2CCN(CCO)CC2)n1 [dasatinib]
Procedure, shortened: as §1

[6] = compound: Cc1ncc(-c2ccnc(Nc3ccc(S(C)(=O)=O)cc3)n2)n1C(C)C
Procedure, shortened: as §1

[7] = compound: Cn1cc(-c2ccc3c(c2)CCN3C(=O)Cc2cccc(C(F)(F)F)c2)c2c(N)ncnc21
Procedure, shortened: as §1

[8] = compound: Cn1cc(-c2ccc3nnc(C(F)(F)c4ccc5ncccc5c4)n3n2)cn1
Procedure, shortened: as §1

[9] = compound: Cn1cncc1[C@@](N)(c1ccc(Cl)cc1)c1ccc2c(c1)c(-c1cccc(Cl)c1)cc(=O)n2C [tipifarnib]
Procedure, shortened: as §1

[10] = compound: FC(F)(F)c1ccc(/C=C/c2nc(COc3ccc(CCCCn4ccnn4)cc3)co2)cc1 [mubritinib]
Procedure, shortened: as §1

[11] = compound: NC(=O)Nc1cc(-c2cccc(F)c2)sc1C(=O)N[C@H]1CCCNC1
Procedure, shortened: as §1

[12] = compound: NC(=O)c1cnc(N[C@@H]2CCCC[C@@H]2N)nc1Nc1cccc(-n2nccn2)c1
Procedure, shortened: as §1

[13] = compound: NC1(c2ccc(-c3nc4ccn5c(=O)[nH]nc5c4cc3-c3ccccc3)cc2)CCC1
Procedure, shortened: as §1

[14] = compound: NCC(=O)Nc1ccc(-n2nc(C(F)(F)F)cc2-c2ccc3c(ccc4ccccc43)c2)cc1
Procedure, shortened: as §1

[15] = compound: Nc1ccccc1NC(=O)c1ccc(CNC(=O)OCc2cccnc2)cc1 [entinostat]
Procedure, shortened: as §1

[16] = compound: O=C(CCCCCCC(=O)Nc1ccccc1)NO [vorinostat]
Procedure, shortened: as §1

[17] = compound: O=C(CCCCCCNC(=O)c1cnc(N(c2ccccc2)c2ccccc2Cl)nc1)NO [citarinostat]
Procedure, shortened: as §1

[18] = compound: O=C(O)c1ccc2c(c1)nc(Nc1cccc(Cl)c1)c1ccncc12 [silmitasertib]
Procedure, shortened: as §1

[19] = compound: O=C1NC(=O)C(c2cnc3ccccn23)=C1c1cn2c3c(cc(F)cc13)CN(C(=O)N1CCCCC1)CC2
Procedure, shortened: as §1

[20] = compound: c1cc(OCCN2CCCCC2)cc(-c2n[nH]c3ccc(-c4nnc[nH]4)cc23)c1
Procedure, shortened: as §1

Row | Target | log2 fold change [1] | log2 fold change [2] | log2 fold change [3] | log2 fold change [4] | log2 fold change [5] | log2 fold change [6] | log2 fold change [7] | log2 fold change [8] | log2 fold change [9] | log2 fold change [10] | log2 fold change [11] | log2 fold change [12] | log2 fold change [13] | log2 fold change [14] | log2 fold change [15] | log2 fold change [16] | log2 fold change [17] | log2 fold change [18] | log2 fold change [19] | log2 fold change [20]
1 | PRKCB isoform 2 (UniProt P05771) | inactive: -0.037 | inactive: 0.025 | inactive: -0.022 | active: -0.3 | inactive: -0.054 | inactive: 0.034 | inactive: 0.04 | inactive: 0 | inactive: -0.051 | inactive: 0.054 | inactive: -0.052 | inactive: -0.037 | inactive: -0.118 | inactive: -0.058 | inactive: 0.045 | inactive: 0.02 | inactive: 0.041 | inactive: 0.032 | inactive: -0.051 | inactive: 0.02
2 | PRPF3 (UniProt O43395) | inactive: 0.048 | inactive: 0.072 | inactive: -0.044 | inactive: -0.201 | inactive: -0.114 | inactive: -0.152 | inactive: -0.149 | inactive: 0.018 | inactive: -0.011 | inactive: 0.118 | inactive: 0.026 | inactive: -0.029 | inactive: -0.099 | inactive: -0.077 | inactive: 0.064 | inactive: 0.128 | inactive: 0.194 | inactive: -0.014 | inactive: -0.063 | inactive: 0
3 | PPM1H (UniProt Q9ULR3) | inactive: -0.024 | inactive: -0.036 | inactive: -0.017 | inactive: -0.011 | inactive: 0.024 | inactive: 0.015 | inactive: 0.042 | inactive: 0.028 | inactive: -0.026 | inactive: 0.03 | inactive: -0.019 | inactive: 0.018 | inactive: -0.005 | inactive: 0.011 | inactive: -0.053 | inactive: -0.002 | inactive: 0.028 | inactive: 0.007 | inactive: -0.089 | inactive: -0.025
4 | PPP1CA (UniProt P62136) | inactive: -0.053 | inactive: -0.001 | inactive: -0.002 | inactive: -0.006 | inactive: 0.008 | inactive: -0.011 | inactive: 0.018 | inactive: 0.065 | inactive: 0.023 | inactive: 0.065 | inactive: -0.036 | inactive: -0.051 | inactive: -0.019 | inactive: -0.02 | inactive: -0.012 | inactive: -0.023 | inactive: 0.034 | inactive: 0 | inactive: 0.007 | inactive: -0.045
5 | PREB (UniProt Q9HCU5) | inactive: -0.033 | inactive: -0.034 | inactive: -0.028 | inactive: 0.031 | inactive: -0.002 | inactive: 0.112 | inactive: 0.015 | inactive: -0.018 | inactive: 0.035 | inactive: 0.025 | inactive: -0.017 | inactive: -0.002 | inactive: -0.011 | inactive: -0.03 | inactive: 0.012 | inactive: -0.034 | inactive: -0.015 | inactive: -0.023 | inactive: -0.032 | inactive: -0.016
6 | PRPF38A (UniProt Q8NAV1) | inactive: 0.048 | inactive: 0.025 | inactive: -0.006 | active: -0.871 | inactive: -0.033 | inactive: -0.073 | inactive: -0.011 | inactive: -0.08 | inactive: 0.036 | inactive: 0.201 | inactive: -0.039 | inactive: -0.015 | inactive: -0.105 | inactive: -0.006 | inactive: 0.004 | inactive: 0.002 | inactive: 0.152 | inactive: -0.212 | inactive: 0.095 | inactive: -0.122
7 | PRRC1 (UniProt Q96M27) | inactive: -0.08 | inactive: -0.039 | inactive: -0.002 | inactive: -0.021 | inactive: 0.038 | inactive: -0.026 | inactive: 0 | inactive: 0.013 | inactive: 0.013 | inactive: 0.057 | inactive: -0.013 | inactive: 0.008 | inactive: 0.01 | inactive: 0.003 | inactive: -0.039 | inactive: -0.03 | inactive: 0.038 | inactive: 0.006 | inactive: -0.034 | inactive: -0.011
8 | PPME1 (UniProt Q9Y570) | inactive: -0.023 | inactive: -0.007 | inactive: -0.001 | inactive: 0.007 | inactive: -0.017 | inactive: -0.008 | inactive: 0.028 | inactive: 0.025 | inactive: -0.031 | inactive: 0.031 | inactive: -0.053 | inactive: -0.046 | inactive: -0.001 | inactive: -0.006 | inactive: -0.005 | inactive: -0.004 | inactive: 0.014 | inactive: 0.021 | inactive: -0.028 | inactive: -0.034
9 | PPP2CA (UniProt P67775) | inactive: 0.035 | inactive: -0.007 | inactive: -0.016 | inactive: 0.011 | inactive: 0.029 | inactive: -0.011 | inactive: -0.022 | inactive: 0 | inactive: -0.036 | inactive: -0.007 | inactive: -0.081 | inactive: -0.005 | inactive: -0.042 | inactive: -0.013 | inactive: -0.074 | inactive: -0.037 | inactive: 0.026 | inactive: -0.036 | inactive: -0.046 | inactive: -0.03
10 | PPM1F (UniProt P49593) | inactive: 0.027 | inactive: 0.038 | inactive: 0.016 | inactive: 0.038 | inactive: -0.093 | inactive: 0.051 | inactive: 0.036 | inactive: 0.041 | inactive: -0.02 | inactive: 0.137 | inactive: -0.027 | inactive: -0.038 | inactive: -0.105 | inactive: -0.085 | inactive: 0.007 | inactive: 0.002 | inactive: 0.022 | inactive: -0.028 | inactive: -0.014 | inactive: -0.008
11 | PRPF40A (UniProt O75400) | inactive: -0.014 | inactive: 0.005 | inactive: -0.085 | inactive: -0.058 | inactive: -0.05 | inactive: -0.135 | inactive: 0.082 | inactive: 0.048 | inactive: 0.045 | inactive: -0.013 | inactive: -0.014 | inactive: -0.001 | inactive: 0 | inactive: -0.062 | inactive: 0.114 | inactive: 0.048 | inactive: 0.079 | inactive: -0.038 | inactive: 0.003 | inactive: -0.067
12 | PRKAG2 (UniProt Q9UGJ0) | inactive: -0.079 | inactive: 0.05 | inactive: -0.08 | inactive: -0.196 | inactive: -0.022 | inactive: -0.013 | inactive: 0.055 | inactive: 0.02 | inactive: 0.04 | inactive: -0.05 | inactive: -0.078 | inactive: -0.036 | inactive: -0.124 | inactive: -0.012 | inactive: -0.284 | inactive: 0.196 | inactive: 0.072 | inactive: 0.034 | inactive: 0.042 | inactive: -0.042
13 | PPP1R10 (UniProt Q96QC0) | inactive: 0.13 | inactive: -0.036 | inactive: 0.001 | inactive: 0.163 | inactive: 0.119 | inactive: 0.119 | inactive: -0.119 | inactive: -0.116 | inactive: 0.123 | inactive: -0.077 | inactive: 0.166 | inactive: 0.065 | inactive: 0.174 | inactive: 0.107 | inactive: -0.059 | inactive: -0.055 | inactive: -0.025 | inactive: 0.2 | inactive: 0.377 | inactive: -0.096
14 | PRKCI (UniProt P41743) | inactive: -0.031 | inactive: 0.045 | inactive: 0.009 | inactive: -0.107 | inactive: -0.051 | inactive: -0.002 | inactive: -0.056 | inactive: 0.013 | inactive: -0.001 | inactive: 0.064 | inactive: -0.041 | inactive: -0.079 | inactive: -0.108 | inactive: -0.036 | inactive: 0.007 | inactive: 0.035 | inactive: 0.031 | inactive: 0.016 | inactive: 0.046 | inactive: -0.033
15 | PPM1E (UniProt Q8WY54) | inactive: -0.003 | inactive: -0.014 | inactive: 0.045 | inactive: 0.033 | inactive: -0.075 | inactive: -0.074 | inactive: 0.107 | inactive: 0.023 | inactive: 0.006 | inactive: 0.031 | inactive: -0.056 | inactive: -0.019 | inactive: -0.074 | inactive: -0.014 | inactive: -0.014 | inactive: 0.002 | inactive: 0.057 | inactive: -0.085 | inactive: -0.325 | inactive: 0.02

Copied from the list:
PPM1H (UniProt Q9ULR3) – log2 fold change [8]: inactive: 0.028
PRPF38A (UniProt Q8NAV1) – log2 fold change [4]: active: -0.871
